The text below walks through data of patent publication US7585997B2, “Compounds and compositions for treating dysproliferative diseases, and methods of use thereof” (Chesterford Enterprises Limited, priority 2003, dated 2009).

Assay [1] concerns HT-29 human colon adenocarcinoma. Briefly: Cell growth inhibition, HT-29 cells. Type of assay: cell-based. The following applies: HT-29, 24 h, read-out: IC50, HT-29, colon.
Assay [2] has as its system BxPC3, carcinoma of pancreas. Briefly: Cell growth inhibition, BxPC3 cells. The following applies: Homo sapiens, BXPC-3, 24 h, read-out: IC50, BxPC3, pancreas. The format is cell-based.

What is called IC50 is the concentration at which inhibition is half-maximal. Turning to `O=C(C=Cc1ccccc1)Oc1ccc(CCl)cc1` [Compound 69, cinnamic acid 4-(chloromethyl)phenyl ester], the IC50 in assay [1] was 6 ± 1 µM; in assay [2] it was 4 ± 1 µM.

With `COc1ccc(C=CC(=O)Oc2ccc(CO[N+](=O)[O-])cc2)cc1OC` [Compound 81, 3,4-dimethoxycinnamic acid 4-(nitrooxymethyl)phenyl ester], the values for the IC50 in assay [1] and in assay [2] were 33 ± 4 µM and 18 ± 3 µM, respectively.
